These are yes or no findings as the source states them, for the method shown. In cells and extracts the contact can be indirect. These calls come from enrichment with a bait or labelling near it, and not all partners need be listed. No binding means not detected with the bait.
Target: ROP38I with a C-terminal HA-FLAG epitope tag (Toxoplasma gondii (type I, RH strain)) (UniProt S8FZ79)
Experiment: affinity purification with mass spectrometry; HA immunoprecipitation (magnetic beads coupled with HA antibodies, overnight at 4°C) from whole-cell lysates of tetracycline-induced TREX-293 GRA15II or ROP38I cells; beads analysed by LC-MS/MS; proteins also found in the ROP38I control excluded

Sequences of proteins named here, by UniProt entry; tags and fusion partners are left off.
UniProt Q13114: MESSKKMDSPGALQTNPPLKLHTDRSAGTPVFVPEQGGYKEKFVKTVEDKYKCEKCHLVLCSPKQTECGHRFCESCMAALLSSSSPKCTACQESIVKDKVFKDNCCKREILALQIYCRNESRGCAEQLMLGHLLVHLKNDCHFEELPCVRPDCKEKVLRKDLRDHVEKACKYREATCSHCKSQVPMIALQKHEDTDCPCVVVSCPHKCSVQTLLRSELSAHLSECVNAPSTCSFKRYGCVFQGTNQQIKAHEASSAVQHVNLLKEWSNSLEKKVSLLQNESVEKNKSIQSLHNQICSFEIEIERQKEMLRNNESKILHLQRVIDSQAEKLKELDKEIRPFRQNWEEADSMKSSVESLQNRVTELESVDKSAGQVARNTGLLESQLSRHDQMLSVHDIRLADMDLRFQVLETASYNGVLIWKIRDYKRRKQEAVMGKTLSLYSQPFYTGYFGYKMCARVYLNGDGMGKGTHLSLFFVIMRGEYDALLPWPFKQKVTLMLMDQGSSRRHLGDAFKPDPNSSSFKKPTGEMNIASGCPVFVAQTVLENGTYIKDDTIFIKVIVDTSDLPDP
UniProt Q9Y4K3: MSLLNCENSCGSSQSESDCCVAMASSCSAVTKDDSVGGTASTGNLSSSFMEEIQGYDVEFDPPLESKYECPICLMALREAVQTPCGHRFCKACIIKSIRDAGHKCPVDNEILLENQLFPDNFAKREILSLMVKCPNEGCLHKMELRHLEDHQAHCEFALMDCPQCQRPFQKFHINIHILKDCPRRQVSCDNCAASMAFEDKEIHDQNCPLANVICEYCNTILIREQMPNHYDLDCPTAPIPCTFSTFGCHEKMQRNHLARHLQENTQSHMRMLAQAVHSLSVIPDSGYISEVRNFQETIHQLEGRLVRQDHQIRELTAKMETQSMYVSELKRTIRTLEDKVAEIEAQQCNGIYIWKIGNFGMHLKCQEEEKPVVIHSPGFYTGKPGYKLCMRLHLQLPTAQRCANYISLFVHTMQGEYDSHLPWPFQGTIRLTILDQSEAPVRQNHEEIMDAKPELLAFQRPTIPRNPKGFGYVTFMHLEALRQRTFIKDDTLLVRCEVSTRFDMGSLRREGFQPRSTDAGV

“TNF receptor-associated factor 3 (TRAF3) (from UniProt Q13114 1-568)” was tested. Which binding did it give?
Its binding is “no binding”.

Which binding does the source give for “TNF receptor-associated factor 6 (TRAF6) (from UniProt Q9Y4K3 1-522)” here?
Its binding is “no binding”.
